Like-named read-outs stand apart in the source and are kept apart here.
Experiments:
[1] = Electrochemical ORR analysis (CV, LSV, Koutecky-Levich) of protic additives titrated into aprotic ionic liquid BdMeIm:Tf
[2] = Cyclic voltammogram of air electrode half cell, 1-methyl-3-octyl-imidazolium chloride with and without Mn2+

Cc1nccn1C.O=S(=O)(O)C(F)(F)F [1,2-dimethylimidaozlium triflate]
number of electrons transferred in the oxygen reduction reaction ([1]; protic additive in BdMeIm:Tf): two-electron transfer

OCC(F)(F)F [2,2,2-trifluoroethanol]
number of electrons transferred in the oxygen reduction reaction [1]: two-electron transfer
oxygen reduction product ([1]; protic additive in BdMeIm:Tf): peroxide

[Mn+2] [Mn^2+]
shift in the turn-on potential for oxygen reduction ([2]; 6.1 Mol % in O2-saturated 1-methyl-3-octyl-imidazolium chloride): approximately 260 mV
reversibility of metal-oxide oxidation reaction ([2]; 6.1 Mol %, oxygen saturated): reversible
current density relative to comparative electrolyte ([2]; at half-wave potential, approximately 1.5V): 2.9 times

CC(=O)O [acetic acid]
number of electrons transferred in the oxygen reduction reaction ([1]; protic additive in BdMeIm:Tf): two-electron transfer

O.O=S(=O)(O)C(F)(F)F [hydronium triflate]
number of electrons transferred in the oxygen reduction reaction [1]: four-electron transfer

CS(=O)(=O)O [methanesulfonic acid]
number of electrons transferred in the oxygen reduction reaction ([1]; protic additive in BdMeIm:Tf): four-electron transfer
reversibility of oxygen reduction ([1]; protic additive in BdMeIm:Tf): loss of reversibility
number of electrons transferred in the oxygen reduction reaction ([1]; protic additive in BdMeIm:Tf, listed as HMeS): four-electron ORR

CCN(C)CC.O=S(=O)(O)C(F)(F)F [n,n-diethyl-n-methylammonium triflate]
number of electrons transferred in the oxygen reduction reaction ([1]; protic additive in BdMeIm:Tf): two-electron transfer

O=S(=O)(O)C(F)(F)F.c1ccnnc1 [pyridazinium triflate]
number of electrons transferred in the oxygen reduction reaction ([1]; protic additive in BdMeIm:Tf): four-electron transfer

O=S(=O)(O)C(F)(F)F.c1ccncc1 [pyridinium triflate]
number of electrons transferred in the oxygen reduction reaction [1]: two-electron transfer

O=S(=O)(O)C(F)(F)F [triflic acid]
number of electrons in ORR on GC disk ([1]; GC disk): two-electron reaction in the first reduction
number of electrons in ORR on Pt disk ([1]; Pt disk, additive 100 mM): four-electron reaction
number of electrons transferred in the oxygen reduction reaction ([1]; protic additive in BdMeIm:Tf): four-electron transfer
reversibility of oxygen reduction ([1]; protic additive in BdMeIm:Tf): loss of reversibility
shift in the half-wave potential for the oxygen reduction reaction ([1]; protic additive in BdMeIm:Tf): greater than 1 V

O [water]
number of electrons transferred in the oxygen reduction reaction ([1]; protic additive in BdMeIm:Tf): one-electron system
oxygen reduction product ([1]; protic additive in BdMeIm:Tf): superoxide is dominant
effect of increasing amount of additive on oxygen reduction reaction behavior ([1]; up to ~1M): little effect

acetophenone: HTf
number of electrons transferred in the oxygen reduction reaction ([1]; protic additive in BdMeIm:Tf): four-electron transfer

benzonitrile: HTf
number of electrons transferred in the oxygen reduction reaction ([1]; protic additive in BdMeIm:Tf): four-electron transfer
